Test: Detection of 3H-inositol-1-phosphate versus 3H-inositol by YSi SPA beads
Conditions: 1 mg YSi SPA beads per well, 20 mM formic acid final, 1 mM ammonium phosphate pH 8

Compound	efficiency of detection by YSi SPA beads relative to detection using Microscint-20
3H-inositol	5%
O=P(O)(O)OC1[C@H](O)[C@H](O)C(O)[C@H](O)[C@H]1O (some centres unmarked) [3H-inositol-1-phosphate]	55%
